The values below come from article PMC5550010.

Substitutions are numbered along the chain they refer to. Numbers in names are those of the source. No constants are given. Whether binding was seen depends on the method and setting. In cells and extracts the contact can be indirect. Binding can be weak; no strength is given.

The test has as its target Smarcc1a, the zebrafish homolog of human SMARCC1 (zebrafish (endogenous in zebrafish larvae and embryos)). As to the kind of experiment: co-IP; lysates of 24 hpf zebrafish embryos injected with zebrafish bbs6, human BBS6 or human BBS6^(H84Y; A242S) mRNA; IP with SMARCC1 antibody (Abcam ab172638) overnight at 4°C, Protein A/G agarose beads; western blot probed for myc.

B1: human BBS6 expressed in zebrafish embryos (protein, UniProt Q9NPJ1 1-570)
chain: MSRLEAKKPSLCKSEPLTTERVRTTLSVLKRIVTSCYGPSGRLKQLHNGFGGYVCTTSQSSALLSHLLVTHPILKILTASIQNHVSSFSDCGLFTAILCCNLIENVQRLGLTPTTVIRLNKHLLSLCISYLKSETCGCRIPVDFSSTQILLCLVRSILTSKPACMLTRKETEHVSALILRAFLLTIPENAEGHIILGKSLIVPLKGQRVIDSTVLPGILIEMSEVQLMRLLPIKKSTALKVALFCTTLSGDTSDTGEGTVVVSYGVSLENAVLDQLLNLGRQLISDHVDLVLCQKVIHPSLKQFLNMHRIIAIDRIGVTLMEPLTKMTGTQPIGSLGSICPNSYGSVKDVCTAKFGSKHFFHLIPNEATICSLLLCNRNDTAWDELKLTCQTALHVLQLTLKEPWALLGGGCTETHLAAYIRHKTHNDPESILKDDECTQTELQLIAEAFCSALESVVGSLEHDGGEILTDMKYGHLWSVQADSPCVANWPDLLSQCGCGLYNSQEELNWSFLRSTRRPFVPQSCLPHEAVGSASNLTLDCLTAKLSGLQVAVETANLILDLSYVIEDKN
As for B1, the binding entry is reported as “binds”.

B2: human BBS6^(H84Y; A242S), the McKusick-Kaufman syndrome allele, expressed in zebrafish embryos (protein, UniProt Q9NPJ1 1-570)
chain: B1 chain with H84Y, A242S
Turning to B2, the binding result is reported as “binds”.
